Data as given in PubChem BioAssay AID1347075 (National Center for Advancing Translational Sciences (NCATS), 2019).
Out of some 400,000 compounds screened, about 5,500 (1.4%) were called active. This list was built around the results that the source calls inconclusive (neither active nor inactive); the mix of calls is not that of the screen. Calls follow the shape of the dose curve; as a rule, active = well fitted cell-killing curve with a large enough effect; inconclusive = small, poorly fitted or top-dose-only effect, or effect the other way; inactive = flat fitted curve, though single readings scatter. Where the call is inconclusive, the potency comes from a doubtful curve fit.

Assay: qHTS assay for MDR1-selective chemotherapeutics: Primary screen using the parental adenocarcinoma cell KB-3-1; also: nearly all actives have a fitted effect of over 60% in size
Conditions: KB-3-1 viability, CellTiter-Glo ATP luminescence, 72 h; activity change, negative = cytotoxic: at 46.1 µM (top of the series)
In short: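 72 h, 37 °C compound treatment of KB-3-1 parental cells; CellTiter-Glo added, 10 min, luminescence read. Data corrected against DMSO-only plates and normalized before curve fitting.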
% is scaled to controls: 0 for no effect and ±100 for the full control effect; potency is read from the fitted curve at half-maximal effect.

SMILES | Potency | activity change, negative = cytotoxic
O=c1c2ccccc2nc(-c2ccccc2)n1CCCn1ccnc1 | inactive | 
CC1(C(=O)NS(=O)(=O)c2cccc(Cl)c2)CCN1C(=O)C1(c2ccc(Cl)cc2)CC1 (centres undefined) | inactive | 
COC(=O)C1=C(C(=O)OC)[C@]2([C@@H]3CCCCN[C@@H](Cc4ccccc4)C(=O)N3Cc3ccccc3)C=C[C@H]1O2 | inconclusive: 16.4 µM [cytotoxic, single point] | 
CN(C)c1ccc(NC(=O)CN2CCN(S(=O)(=O)c3cc(Cl)ccc3Cl)CC2)cc1 |  | inconclusive: -0.55%
Cc1ccccc1NC(=S)NCc1ccc2c(c1)cc(C)n2C | inconclusive: 23.1 µM [cytotoxic, single point] | 
Cc1cc(C)n(CCc2nc(-c3ccc(F)cc3)cs2)n1 | inactive | 
CCC(C)C(NS(=O)(=O)c1ccc(C)cc1)C(=O)N1CCOCCOCCOCC1 (centres undefined) | inactive | 
O=C(Nc1ccccc1)c1ccccc1NC(=O)C1CCCCC1 | inactive | 
CCCc1cc(-c2n[nH]c(=S)n2CC)cs1 | inconclusive: 18.4 µM [cytotoxic, single point] | 
CN(C)c1cc(-c2ccccc2)nc(N)n1 | active: 20.6 µM | 
COC(=O)c1ccc(C(=O)NC2CCSc3ccccc32)cc1 (centres undefined) | inactive | 
Cc1ccc2c(c1)sc(-c1ccc(N(C)C)cc1)[n+]2C | active: 1.84 µM | 
CC1(C)CC2CC(C)(CN2S(=O)(=O)c2ccc(C(=O)Nc3ccc(S(=O)(=O)N4CCOCC4)cc3)cc2)C1 (centres undefined) | inconclusive: 18.4 µM [cytotoxic, partial curve] | 
O=C(Nc1ccc(Cl)cc1C(F)(F)F)C(Sc1nnc(-c2cccs2)o1)c1ccccc1 (centres undefined) | inconclusive: 20.6 µM [cytotoxic, single point] | 
CCN1C(=O)C(CC(=O)Nc2ccc(OC)cc2)N(Cc2cccs2)C1=S (centres undefined) | inactive | 
COc1ccc(N(CC(=O)Nc2cc(OC)ccc2OC)S(=O)(=O)c2c(C)noc2C)cc1 | active: 18.4 µM | 
O=C(c1ccc(CS(=O)c2ccccc2Cl)o1)N1CCN(c2ccccn2)CC1 (centres undefined) | active: 7.31 µM | 
Cc1ccc2ccc[n+](Cc3ccccc3)c2c1 | active: 5.17 µM | 
CCOC(=O)c1c(C)oc2nc(C)nc(N3CCN(c4cccc(C(F)(F)F)c4)CC3)c12 | inconclusive: 18.4 µM [cytotoxic, partial curve] | 
CC(C)n1c(-c2ccco2)csc1=Nc1cccnc1 | inconclusive: 22.4 µM [cytotoxic, single point] | 
Cc1cccc(N2CCN(C(=S)Nc3ccc4nc5n(c(=O)c4c3)CCCCC5)CC2)c1C | inconclusive: 29.1 µM [cytotoxic, single point] | 
O=C(CCC1CCCC1)N[C@@H](Cc1ccc(O)cc1)C(=O)O | inconclusive: 16.4 µM [rising, partial curve, poor fit] | 

SMILES | Potency | activity change, negative = cytotoxic
Cc1ccc(OCc2cc(C(=O)NC3CCCCC3)no2)cn1 | inconclusive: 4.11 µM [cytotoxic, partial curve] | 
CN(C)S(=O)(=O)c1cccc(NC(=S)Nc2cc(Cl)cc(Cl)c2)c1 | inconclusive: 29.1 µM [cytotoxic, single point] | 
Cc1cc(C(=O)CN2C(=O)C3CC=CCC3C2=O)c(C)n1-c1ccccc1 (centres undefined) | inconclusive: 29.1 µM [cytotoxic, partial curve, poor fit] | 
CC(C)c1cccc(C(C)C)c1NC(=O)c1ccc(-c2cc(Cl)ccc2Cl)o1 | inactive | 
CC(C)(C)C(c1nc2ccccc2[nH]1)n1c(-c2ccsc2)nc2ccccc21 (centres undefined) | inconclusive: 23.1 µM [cytotoxic, partial curve, poor fit] | 
COc1cc2c3nnc(-c4ccc(F)cc4)c-3cn(Cc3ccc(C)cc3)c2cc1OC | inconclusive: 29.1 µM [cytotoxic, single point] | 
CCOC(=O)c1c(CSc2nc(C)cc(C)c2C#N)n(C)c2cc(Br)c(OC(C)=O)cc12 | inconclusive: 23.1 µM [cytotoxic, single point] | 
COc1ccc(NC(=O)N(CCCN(C)C)Cc2cc3cc(OC)ccc3[nH]c2=O)cc1 | inactive | 
O=C(NN=C1CCCCCCC1)c1ccc2ccccc2n1 | inconclusive: 0.0116 µM [rising, full curve] | 
O=C(CCCCn1c(=O)c2ccccc2n(Cc2cccc(Cl)c2)c1=O)NCc1ccc2c(c1)OCO2 | inconclusive: 2.91 µM [cytotoxic, partial curve, poor fit] | 
COc1ccc(S(=O)(=O)c2nnn(-c3ccc(C)c(Cl)c3)c2C)cc1 | inconclusive: 29.1 µM [cytotoxic, single point] | 
COC(=O)[C@]12CCCCC=C1N(Cc1cccc3ccccc13)C(=O)[C@H](CC(=O)N1CCC(c3ccccc3)CC1)C2 | inconclusive: 23.1 µM [cytotoxic, single point] | 
Cc1ccc(-n2c(SCC(N)=O)nc3c(c2=O)C2(CCCC2)Cc2ccccc2-3)cc1 | inconclusive: 20.6 µM [cytotoxic, single point] | 
O=C(c1ncc[nH]1)c1cccs1 | inconclusive: 18.4 µM [rising, single point] | 
Cc1ccc(/C=N/NC(=O)CNC(=O)c2cccc([N+](=O)[O-])c2C)o1 | inactive | 
C#CCOc1nc(Nc2cccc([N+](=O)[O-])c2)nc(OCC#C)n1 | inactive | 
CCOC(=O)C1CCCN(C(=O)c2ccc(C(=O)c3ccccc3)cc2)C1 (centres undefined) | inactive | 
CCc1ccc2[nH]c3nc(N/N=C/c4cccc(O)c4)nnc3c2c1 | inconclusive: 3.26 µM [cytotoxic, partial curve, poor fit] | 
COc1ccc(Nc2nc(N)nc(CN3CCc4ccccc4C3)n2)cc1 | inconclusive: 23.1 µM [cytotoxic, single point] | 
COc1ccc(NC(=O)c2ccc(NC(=O)c3ccco3)cc2)c(OC)c1 | inconclusive: 0.0366 µM [cytotoxic, full curve] | 
Fc1ccc(Br)cc1C1C=C(c2ccc(Br)cc2)Nc2nnnn21 (centres undefined) | inactive | 
CCOC(=O)c1ccc(Nc2ncnc3ccc(C)cc23)cc1 | inconclusive: 14.6 µM [rising, partial curve, poor fit] | 

2 of the compounds above, as labelled records:
COc1ccc(NC(=O)N(CCCN(C)C)Cc2cc3cc(OC)ccc3[nH]c2=O)cc1
  Potency: inactive
CCOC(=O)c1ccc(Nc2ncnc3ccc(C)cc23)cc1
  Potency: inconclusive: 14.6 µM [rising, partial curve, poor fit]
